Experiment [1] concerns the target Stimulator of interferon genes (STING), endogenous in KYSE-30 cells (human (endogenous in KYSE-30)) (UniProt Q86WV6). Briefly: co-IP; endogenous STING precipitated with anti-STING antibody (abcam) and protein A/G agarose from KYSE-30 lysates (50 mM Tris-HCl pH 7.4, 150 mM NaCl, 1% NP-40, 0.1% SDS; 4 °C overnight), OGT detected by immunoblot; cells treated with poly(dA:dT) 2 μg/mL 16 h, TMG or DON. (In general: A western blot detects proteins with antibodies after separation by electrophoresis.)

By UniProt entry, the sequences of proteins in these tests, tags left out. Where a name states a change or a piece, a line headed by the entry shows the natural chain unless it says otherwise.
UniProt Q86WV6: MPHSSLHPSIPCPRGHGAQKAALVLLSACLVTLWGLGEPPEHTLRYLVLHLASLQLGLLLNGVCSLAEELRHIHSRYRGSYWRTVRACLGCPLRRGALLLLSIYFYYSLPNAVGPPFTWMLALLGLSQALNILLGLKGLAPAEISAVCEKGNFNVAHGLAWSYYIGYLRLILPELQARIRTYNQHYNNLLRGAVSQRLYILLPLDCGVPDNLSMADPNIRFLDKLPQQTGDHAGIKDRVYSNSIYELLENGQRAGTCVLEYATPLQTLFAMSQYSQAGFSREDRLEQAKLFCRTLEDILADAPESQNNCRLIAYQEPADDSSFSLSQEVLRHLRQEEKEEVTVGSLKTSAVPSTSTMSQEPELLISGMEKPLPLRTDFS

In experiment [2] the target is FLAG-tagged STING-WT expressed in HEK-293T cells (human) (UniProt Q86WV6). Kind of experiment: co-IP; HEK-293T transfected with FLAG-tagged STING-WT or -T229A; precipitated with anti-STING antibody (abcam), TRIM56 detected by immunoblot.
Experiment [3] addresses FLAG-tagged STING-T229A expressed in HEK-293T cells (human) (UniProt Q86WV6). The experiment is described as above.

No constants are given. Whether binding was seen depends on the method and setting. Binding seen in cells or lysates may run through a third protein. Some binding calls cover weakened binding; strength is not graded here.

B1: O-GlcNAc transferase (OGT), endogenous in KYSE-30 cells (enzyme, UniProt O15294 1-1046)
chain: MASSVGNVADSTEPTKRMLSFQGLAELAHREYQAGDFEAAERHCMQLWRQEPDNTGVLLLLSSIHFQCRRLDRSAHFSTLAIKQNPLLAEAYSNLGNVYKERGQLQEAIEHYRHALRLKPDFIDGYINLAAALVAAGDMEGAVQAYVSALQYNPDLYCVRSDLGNLLKALGRLEEAKACYLKAIETQPNFAVAWSNLGCVFNAQGEIWLAIHHFEKAVTLDPNFLDAYINLGNVLKEARIFDRAVAAYLRALSLSPNHAVVHGNLACVYYEQGLIDLAIDTYRRAIELQPHFPDAYCNLANALKEKGSVAEAEDCYNTALRLCPTHADSLNNLANIKREQGNIEEAVRLYRKALEVFPEFAAAHSNLASVLQQQGKLQEALMHYKEAIRISPTFADAYSNMGNTLKEMQDVQGALQCYTRAIQINPAFADAHSNLASIHKDSGNIPEAIASYRTALKLKPDFPDAYCNLAHCLQIVCDWTDYDERMKKLVSIVADQLEKNRLPSVHPHHSMLYPLSHGFRKAIAERHGNLCLDKINVLHKPPYEHPKDLKLSDGRLRVGYVSSDFGNHPTSHLMQSIPGMHNPDKFEVFCYALSPDDGTNFRVKVMAEANHFIDLSQIPCNGKAADRIHQDGIHILVNMNGYTKGARNELFALRPAPIQAMWLGYPGTSGALFMDYIITDQETSPAEVAEQYSEKLAYMPHTFFIGDHANMFPHLKKKAVIDFKSNGHIYDNRIVLNGIDLKAFLDSLPDVKIVKMKCPDGGDNADSSNTALNMPVIPMNTIAEAVIEMINRGQIQITINGFSISNGLATTQINNKAATGEEVPRTIIVTTRSQYGLPEDAIVYCNFNQLYKIDPSTLQMWANILKRVPNSVLWLLRFPAVGEPNIQQYAQNMGLPQNRIIFSPVAPKEEHVRRGQLADVCLDTPLCNGHTTGMDVLWAGTPMVTMPGETLASRVAASQLTCLGCLELIAKNRQEYEDIAVKLGTDLEYLKKVRGKVWKQRISSPLFNTKQYTMELERLYLQMWEHYAAGNKPDHMIKPVEVTESA
With B1, the binding result in experiment [1] is “binds”.

B2: TRIM56, endogenous in HEK-293T cells (enzyme, UniProt Q9BRZ2 1-755)
chain: MVSHGSSPSLLEALSSDFLACKICLEQLRAPKTLPCLHTYCQDCLAQLADGGRVRCPECRETVPVPPEGVASFKTNFFVNGLLDLVKARACGDLRAGKPACALCPLVGGTSTGGPATARCLDCADDLCQACADGHRCTRQTHTHRVVDLVGYRAGWYDEEARERQAAQCPQHPGEALRFLCQPCSQLLCRECRLDPHLDHPCLPLAEAVRARRPGLEGLLAGVDNNLVELEAARRVEKEALARLREQAARVGTQVEEAAEGVLRALLAQKQEVLGQLRAHVEAAEEAARERLAELEGREQVARAAAAFARRVLSLGREAEILSLEGAIAQRLRQLQGCPWAPGPAPCLLPQLELHPGLLDKNCHLLRLSFEEQQPQKDGGKDGAGTQGGEESQSRREDEPKTERQGGVQPQAGDGAQTPKEEKAQTTREEGAQTLEEDRAQTPHEDGGPQPHRGGRPNKKKKFKGRLKSISREPSPALGPNLDGSGLLPRPIFYCSFPTRMPGDKRSPRITGLCPFGPREILVADEQNRALKRFSLNGDYKGTVPVPEGCSPCSVAALQSAVAFSASARLYLINPNGEVQWRRALSLSQASHAVAALPSGDRVAVSVAGHVEVYNMEGSLATRFIPGGKASRGLRALVFLTTSPQGHFVGSDWQQNSVVICDGLGQVVGEYKGPGLHGCQPGSVSVDKKGYIFLTLREVNKVVILDPKGSLLGDFLTAYHGLEKPRVTTMVDGRYLVVSLSNGTIHIFRVRSPDS
Take B2: the binding result in experiment [2] and in experiment [3] was “binds” throughout.
